Percent effect of library compounds

Chains of the proteins cited; added tags and fusions are not shown.
UniProt I6X8D2, whole entry: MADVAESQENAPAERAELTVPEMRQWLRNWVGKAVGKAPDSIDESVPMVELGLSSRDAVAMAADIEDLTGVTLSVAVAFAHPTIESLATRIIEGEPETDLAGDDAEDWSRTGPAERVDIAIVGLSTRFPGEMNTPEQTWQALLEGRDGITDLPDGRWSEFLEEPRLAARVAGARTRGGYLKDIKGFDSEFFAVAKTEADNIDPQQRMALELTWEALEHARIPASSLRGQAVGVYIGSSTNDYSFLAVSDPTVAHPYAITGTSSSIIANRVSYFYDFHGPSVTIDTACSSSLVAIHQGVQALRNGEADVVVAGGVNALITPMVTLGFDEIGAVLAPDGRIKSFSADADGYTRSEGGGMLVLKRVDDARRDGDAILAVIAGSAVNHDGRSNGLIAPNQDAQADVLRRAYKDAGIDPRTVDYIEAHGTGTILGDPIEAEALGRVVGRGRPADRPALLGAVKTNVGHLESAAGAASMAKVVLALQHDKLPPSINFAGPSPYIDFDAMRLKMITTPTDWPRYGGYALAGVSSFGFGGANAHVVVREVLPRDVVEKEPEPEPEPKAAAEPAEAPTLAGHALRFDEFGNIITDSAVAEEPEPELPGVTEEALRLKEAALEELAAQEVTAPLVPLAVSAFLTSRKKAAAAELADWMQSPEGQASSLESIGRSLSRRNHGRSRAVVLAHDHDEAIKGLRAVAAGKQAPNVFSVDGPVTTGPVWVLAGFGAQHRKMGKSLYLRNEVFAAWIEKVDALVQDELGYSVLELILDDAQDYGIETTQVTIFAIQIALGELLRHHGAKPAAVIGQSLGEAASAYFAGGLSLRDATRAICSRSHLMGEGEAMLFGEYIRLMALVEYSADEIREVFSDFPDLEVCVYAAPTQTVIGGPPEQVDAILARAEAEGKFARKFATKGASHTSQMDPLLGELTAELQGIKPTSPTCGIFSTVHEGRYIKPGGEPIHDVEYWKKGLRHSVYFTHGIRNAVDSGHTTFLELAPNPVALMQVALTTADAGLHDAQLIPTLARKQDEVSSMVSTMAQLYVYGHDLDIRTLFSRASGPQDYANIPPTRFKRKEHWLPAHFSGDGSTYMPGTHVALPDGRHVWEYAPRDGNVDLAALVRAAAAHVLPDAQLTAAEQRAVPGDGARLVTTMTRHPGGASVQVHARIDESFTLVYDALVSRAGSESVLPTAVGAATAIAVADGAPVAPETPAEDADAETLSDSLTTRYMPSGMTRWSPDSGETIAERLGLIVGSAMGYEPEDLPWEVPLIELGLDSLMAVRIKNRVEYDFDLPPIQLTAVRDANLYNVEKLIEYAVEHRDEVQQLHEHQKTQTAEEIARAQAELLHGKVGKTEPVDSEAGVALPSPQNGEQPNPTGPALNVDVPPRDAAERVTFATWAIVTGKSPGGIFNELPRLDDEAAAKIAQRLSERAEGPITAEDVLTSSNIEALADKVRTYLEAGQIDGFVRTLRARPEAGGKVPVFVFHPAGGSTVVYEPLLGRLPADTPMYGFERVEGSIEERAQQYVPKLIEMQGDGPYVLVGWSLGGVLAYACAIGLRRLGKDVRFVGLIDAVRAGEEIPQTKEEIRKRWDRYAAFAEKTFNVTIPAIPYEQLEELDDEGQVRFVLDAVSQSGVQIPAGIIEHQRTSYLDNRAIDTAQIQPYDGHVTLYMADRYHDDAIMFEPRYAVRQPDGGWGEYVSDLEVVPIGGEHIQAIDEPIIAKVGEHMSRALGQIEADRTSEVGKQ

Data taken from ChEMBL document CHEMBL3988442, “University of Dundee, Small-Polar-MMV Screening Library” (2021).

Toxoplasma: 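Assay of Toxoplasma gondii numbers, read through their beta-galactosidase reporter with a colour substrate. Tested at 10 µM. The record gives no direction; the compounds picked for IC50 retests had high values, so higher reads as fewer parasites. Of about 67,000 compounds tested this way, about 260 (0.38%) reached 50% or more in at least one test.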
Pks13 thioesterase: 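Polyketide synthase Pks13, Mycobacterium tuberculosis (UniProt I6X8D2). Enzyme assay of the thioesterase domain of polyketide synthase 13; the read-out is not stated. Concentration: 30 µM. Higher reads as stronger inhibition (inferred from which compounds were picked for retests). Of about 67,000 compounds tested this way, about 300 (0.46%) reached 50% or more in at least one test.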

The filed quantity is “Percent Effect” (%).
The controls that fix the scale are not given in the record; negative values are as filed.
The compounds are a random part of those screened.
A dash means the value is not listed here; it may have been measured.

compound	Toxoplasma	Pks13 thioesterase
c1ccc2oc(N3CCCC4(CCOC4)C3)nc2c1 (centres unmarked)	-3.114%	-11.88%
O=S(=O)(c1ccc(Cl)cc1)N1CCN(CCCn2ccnc2)CC1	-3.188%	-17.74%
O=C(NCCNc1ccc(C(F)(F)F)cn1)c1ccc(F)cc1Cl	-5.583%	-13%
N#Cc1cc2c(nc1SCc1cc(O)nc(O)n1)CCCCC2	9.952%	12.69%
O=S(=O)(C1CC1)N1CCC2(CC1)CC(Oc1ccccn1)CO2 (centres unmarked)	-9.634%	8.522%
O=C(O)C(F)(F)F.O=C(O)C(F)(F)F.[H][C@@]12CN(Cc3ccncc3)CCC[C@]1(C(=O)O)CN(c1ncccn1)C2	0.8621%	-
COCCN1C(=O)CCC12CCN(C(=O)CC1CC1)CC2	-2.429%	-14.48%
O=C(Cc1ccsc1)N1CCc2ncc(Cn3cccn3)n2CC1	-30.19%	-14.99%
c1ccc(CO[C@@H]2CN(Cc3cccnc3)[C@@H]3COC[C@@H]32)nc1	-	-9.54%
COc1cnc(CN2CCN(CC(C)C)C(=O)C2C)cc1O (centres unmarked)	-7.743%	-10.19%
Cc1nn(C)c(C)c1C(=O)NCc1cccnc1OC1CCCC1	-13.66%	-20.02%
O=C(NCC1CC1)C1CN(C(=O)c2ccco2)CC12CCOCC2 (centres unmarked)	-3.725%	-1.283%
Cc1ccccc1CNC(=O)CNc1ccc(OC2CCOC2)cc1 (centres unmarked)	-6.092%	8.332%
COc1ccnc(N2CCCN(Cc3ncc(C(C)C)o3)CC2)n1	-1.063%	5.568%
COCC1CN(C(=O)Nc2cc(Cl)cc(Cl)c2)CCO1 (centres unmarked)	-0.2674%	1.651%
CC(C)NC(=O)NC[C@H]1OC[C@@H](NCc2ccc(S(C)(=O)=O)cc2)[C@@H]1O	-1.355%	-19.9%
CCOc1cc(C(=O)N2CCCC(c3nc(C)c(C)s3)C2)ccn1 (centres unmarked)	24.56%	-18.52%
O=C(c1cccs1)N1CCCC(c2cc(C(F)F)n3ncnc3n2)C1 (centres unmarked)	13.06%	5.184%
O=C(c1cccs1)N1C[C@H]2CC[C@@]3(N=C(c4ccccc4)NC3=O)[C@H]2C1	-	-22.04%
CNC(=O)Cc1noc(Cc2cccc(Br)c2)n1	-2.126%	-29.98%
Cc1nnc(NC(=O)CCc2c(C)nn3cnnc3c2C)s1	12.98%	-1.232%
O=C(O)CSc1nccc(-c2ccc3c(c2)OCO3)n1	-5.639%	51.83%
N[C@H]1CN(C(=O)Cc2ccc(Cl)c(Cl)c2)C[C@@H]1C1CC1	-4.232%	-4.613%
Cc1nc(CN2C(=O)C[C@@H]3[C@@H]2CCN3C(=O)C2CCOCC2)cs1	-	-14.86%
c1nc(N2CCN(Cc3nnnn3C3CC3)CC2)c2sccc2n1	-5.513%	-
C=C(C)COc1ccc(C(=O)NCC2CC(CC)=NO2)cc1 (centres unmarked)	2.786%	-
O=C([C@@H]1CC[C@@H]2[C@@H](CCN2CCOCc2ccccc2)O1)N1CCCC1	-	-27.93%
COCC(=O)N1CCN(C(C)c2ncc(-c3ccccc3)o2)CC1 (centres unmarked)	-8.98%	2.118%
CCc1nc(CNC(C)c2cccc(N3CCCC3=O)c2)cs1 (centres unmarked)	-	-10.27%
[H][C@@]12CS(=O)(=O)C[C@]1([H])N(C(=O)c1ccc(OC)o1)CCN2C(=O)CC	-1.243%	-
Cc1nc(C2CCN(CC(=O)NC3CC3)CC2)cc(N2CCOCC2)n1	-14.62%	-14.19%
CC1(C)CNC(=O)c2nc(CCN3CCOCC3)[nH]c2C1	-1.981%	-
CCc1ccc(C2CCCN2C(=O)NCC(=O)NCC(C)C)o1 (centres unmarked)	0.4369%	-5.394%
CCc1nc(C2CCCN(C(=O)c3ccc(OC)cc3)C2)no1 (centres unmarked)	1.354%	-
N[C@@H](Cc1ccccc1)c1nnc(S(=O)(=O)Cc2ccccc2)o1	20.61%	-7.583%
O=C(NCc1cn2c(n1)SCC2)c1ccc(CN2CCCCC2)cc1	6.498%	7.395%
Cn1ncc2c(=O)[nH]c(CN3CCC(Cc4ccccc4)CC3)nc21	-8.977%	-8.207%
COCCN1C(=O)CC[C@@H]2[C@H]1CCN2C(=O)N(C)C	-	-34.53%
Cc1cc(C)n(CC2CN(CC(=O)NC3CCCCC3)CCO2)n1 (centres unmarked)	-5.66%	-11.43%
CC(C(=O)N1CCN(CCOc2ccccc2)CC1)n1cc(Cl)cn1 (centres unmarked)	8.141%	-24.61%
O=C(O)C(F)(F)F.O=C(O)C(F)(F)F.[H][C@@]12CCCO[C@]1([H])[C@@H](Oc1ccccn1)CN2c1nnc(C)s1	-5.429%	-
COCCNC(=O)c1sc2ccccc2c1C1CCC(CN)CC1 (centres unmarked)	-	1.602%
COc1ccc(-c2n[nH]cc2CN(C)CCCN2CCOCC2)c(F)c1	-2.755%	-6.567%
CN1CCN(c2cc(CNC(=O)c3ccc(Cl)o3)ccn2)CC1	-32.75%	-39.63%
CC1CCN(Cn2nc(-c3ccc(F)cc3)oc2=O)CC1	1.588%	-15.8%
O=C(CN1CCOc2ccccc2C1)NCc1cc2n(n1)CCNC2	-0.5508%	-6.83%
CCc1noc(CN(CCc2ccccc2)C2CCN(C)CC2)n1	-19.12%	-13.32%
CCn1cncc1-c1nc2c([nH]1)CC(C)(C)CNC2=O	-9.988%	-8.713%
Cc1noc(C2CCN(Cn3cc(Br)cn3)CC2)n1	-8.846%	-7.224%
Cc1cc(NC(N)=O)ccc1C(=O)N(C)C	-0.7052%	-8.876%
c1cnnc(N2CCCC(NCc3cccc4c3OCO4)C2)c1 (centres unmarked)	-6.687%	-
CC(C)(C)c1nc(NS(=O)(=O)c2ccc(F)cc2)no1	11.21%	6.079%
CCSc1cc(C(=O)NC(C)c2cccc(N3CCOC3=O)c2)ccn1 (centres unmarked)	-73.9%	-13.89%
COc1ccc(-c2cc3cccn(CC(=O)N4CCOCC4)c-3n2)cc1	8.269%	31.32%
[H][C@]12CNC[C@@]1(C(=O)NCC1(COC)CC1)CN(C1CCCC1)C2	-2.182%	-
Cc1cn[nH]c1C1COCCN1Cc1ccsc1 (centres unmarked)	-0.1233%	-2.856%
CCCN1CCC(C(=O)NCCN(CC)c2ccccc2C)CC1	-4.332%	-19.47%
CN(C)Cc1nn(C)c2c1CN(C(=O)Nc1ccc(F)cc1)C2	-14.31%	-18.28%
CC(CNCc1ccncc1)Oc1ccccn1 (centres unmarked)	-	-30.38%
COc1ccccc1C(C)CC(=O)N1CCCS1(=O)=O (centres unmarked)	-8.802%	-29.53%
O=C1NCCN(C(=O)c2cn3ccsc3n2)C1Cc1ccccc1 (centres unmarked)	3.245%	5.184%
COCC1c2c(cnn2CC2CC2)CCN1Cc1cccs1 (centres unmarked)	-	-6.604%
O=C(O)[C@@H]1OCC(=O)N(Cc2cccc(Cl)c2)[C@@H]1c1ccccc1	10.43%	1.893%
Cn1ccnc1CN1CC[C@H]2CO[C@H](CNc3ncccn3)[C@H]2C1	-	-7.611%
Cc1oc(-c2ccsc2)nc1CC(=O)NCC(C)(C)CN(C)C	1.771%	-13.41%
CCN(CC)c1ncc(Cl)c(C(=O)NC2CC2)n1	4.026%	1.045%
[H][C@@]12CCN(C(=O)Cc3cccc(O)c3)C[C@]1([H])[C@@H](c1ccccc1)CN2C	-12.89%	-
CS(=O)(=O)N1CC2(CCCN(CC3CC3)C2)Cc2ccccc21 (centres unmarked)	5.288%	-13.68%
CCC(=O)N(CC)CCc1nccs1	-8.654%	3.563%
Cc1nccn1C1(C(=O)O)CCN(Cc2ccc3nsnc3c2)CC1	14.78%	-8.63%
Cc1ccc(CN2C[C@@H]3CN(c4ncccn4)C[C@@H]3C2)cc1	-	-34.33%
CC(C)n1cnnc1CCNCc1cn(CCC(N)=O)c2ccccc12	7.463%	-28.58%
N#CC1(c2ccccc2)CCN(C(=O)CN2C(=O)CCNC2=O)CC1	2.683%	-19.98%
O=C(Nc1cccc(Cn2cccn2)c1)N1CCCC(N2CCCC2)C1 (centres unmarked)	-0.306%	-37.49%
Cc1cc(C(=O)N2CCc3nc(N4CCCC4)nc(C)c3CC2)c(C)o1	-11.12%	-6.054%
CN(C)CCN1C(=O)CCCC12CCCN(C(=O)c1ccncc1)C2 (centres unmarked)	-	3.269%
CC(=O)Nc1cccc(OCCNC(=O)N(C)Cc2ccccc2)c1	8.256%	1.119%
Cc1ncsc1CCC(=O)N1CCCC[C@H](N(C)C)C1	3.493%	2.083%
O=C(c1ccc[nH]1)N1CCn2cc(Cn3cncn3)nc2C1	3.161%	-17.79%
CCCn1ncnc1C(C)NC(=O)C1CCN(C(C)C)CC1 (centres unmarked)	1.366%	-28.77%
O=S(=O)(N[C@@H]1CCO[C@]2(CCN(CC3CCOCC3)C2)C1)C1CC1	-	-4.007%
COc1ncccc1C(=O)NCCn1cnc(C)cc1=O	-7.374%	-9.242%
Fc1cc(CN2CCOC3(CCOCC3)C2)ccc1Cl	-1.501%	-5.244%
CCc1nc(CCNC(=O)C2CCOC2)sc1C (centres unmarked)	-2.072%	-10.17%